The source of these data is article doi:10.1101/2022.03.14.484356 (bioRxiv, 2022).

Amino acid sequences for entries named in this document (tags omitted).
UniProt P62491: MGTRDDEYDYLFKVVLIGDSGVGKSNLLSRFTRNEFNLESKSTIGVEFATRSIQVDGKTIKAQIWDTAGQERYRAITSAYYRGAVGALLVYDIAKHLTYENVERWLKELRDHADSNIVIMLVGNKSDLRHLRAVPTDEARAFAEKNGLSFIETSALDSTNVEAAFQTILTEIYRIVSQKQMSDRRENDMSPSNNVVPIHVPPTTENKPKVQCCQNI

Read-outs that look alike come from different tables or passages of the source. These are yes or no findings as the source states them, for the method shown. For some of these results: In cells and extracts the contact can be indirect. Some entries that bind do so weakly or less than the wild type. For some of these results: Sequences can lack the tags named with a protein.

Experiment [1] has as its target T1, Flag-tagged RABL3 (RAB-Like 3), wild type (human) (UniProt Q5HYI8).
T1 sequence: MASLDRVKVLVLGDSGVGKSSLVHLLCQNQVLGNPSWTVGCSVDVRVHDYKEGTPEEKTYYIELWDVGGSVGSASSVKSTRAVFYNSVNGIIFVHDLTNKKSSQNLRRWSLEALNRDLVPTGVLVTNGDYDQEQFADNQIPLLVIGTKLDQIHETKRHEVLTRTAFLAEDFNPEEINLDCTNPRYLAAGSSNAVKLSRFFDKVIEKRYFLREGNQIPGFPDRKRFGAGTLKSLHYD
Nature of the experiment: co-IP.

Experiment [2] concerns the target GFP-fused RAB11A, wild type (human) (UniProt P62491). The experiment can be described thus: co-IP.
For experiment [3], the target named is recombinant GST-RAB11A (human) (UniProt P62491). Nature of the experiment: pull-down.
For experiment [4] the target is unchanged. Nature of the experiment: pull-down. The source holds these as a separate data set.

In the case of “GFP-fused RAB11A, wild type (from UniProt P62491 1-216)”, in experiment [1], the binding result is “binds”.

B1: Flag-tagged RABL3 (RAB-Like 3), wild type (protein, UniProt Q5HYI8 1-236)
chain: T1 sequence
As for B1, the binding result in experiment [2] is given as “binds”.

B2: recombinant RABL3 (protein, UniProt Q5HYI8 1-236)
chain: T1 sequence
B2: the binding entry in experiment [3] is “no binding (condition: with 10 μM GDP)”; in experiment [4], “no binding (condition: with 10 μM GTPγS)”.
